Experimental data: ChEMBL document CHEMBL1125177, “Pseudopeptide analogues of substance P and leucine enkephalinamide containing the psi (CH2O) modification: synthesis and biological activity” (J Med Chem, 1991)

Species on record: Cavia porcellus
Experiment: Inhibitory effect was measured on guinea pig ileum for maximal contraction
Type: functional

Molecule `CN1CC[C@]23c4c5ccc(O)c4O[C@H]2[C@@H](O)C=C[C@H]3[C@H]1C5` [MORPHINE] has an IC50 of 140 nM.
